Record: PubChem BioAssay AID1224830 (NIAID, 2016)
Here is one part, drawn at random, of about 18,000 deposited reagents. About 2,900 of all reagents (16%) were called active. 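Calls are made per well; low scores hint the gene aids the LPS response, high scores that it dampens it.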 Repeated entries: four replicate wells of each siRNA pool.

Test: 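Host factors that control LPS-induced TNF expression in human macrophages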 (primary screen)
Cells: human THP-1 monocytic leukaemia cells, TNF dual-luciferase reporter clone, PMA-differentiated to macrophage-like cells
Knock-down reagent: siRNA pool against human genes, 50 nM
Time to read-out: LPS for 4 h, given about 3 days after siRNA transfection
Conditions: bacterial LPS (TLR4 ligand), 10 ng/ml
Measured: 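TNF firefly reporter luminescence divided by renilla, normalised to the plate median, then turned into a robust z-score for each replicate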
Reading the numbers: TNF reporter robust z-score: higher = stronger TNF reporter response to LPS
Rule for the call: 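Each well counts as active if its z-score is over 2.8 or under -1.5; controls are left without a call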

After knock-down of ZNF827 (zinc finger protein 827), the record shows TNF reporter robust z-score 0.65; inactive.
Knock-down of ZNF827 (zinc finger protein 827) came out at: TNF reporter robust z-score 1.66; inactive.
Knock-down of ZNF827 (zinc finger protein 827) resulted in: TNF reporter robust z-score 1.61; inactive.
With knock-down of ZNF827 (zinc finger protein 827) the results were TNF reporter robust z-score 1.22; inactive.
Silencing of FBXL4 (F-box and leucine rich repeat protein 4) gave: TNF reporter robust z-score 1.47; inactive.
FBXL4 (F-box and leucine rich repeat protein 4) gave TNF reporter robust z-score -0.45; inactive.
FBXL4 (F-box and leucine rich repeat protein 4) scored TNF reporter robust z-score 3.23; active.
Knock-down of FBXL4 (F-box and leucine rich repeat protein 4) resulted in: TNF reporter robust z-score 2.04; inactive.
Depletion of LINC01588 (long independently transcribed non-coding RNA 1588) resulted in: inactive.
Depletion of LINC01588 (long independently transcribed non-coding RNA 1588) resulted in: TNF reporter robust z-score -1.35; inactive.
Knock-down of LINC01588 (long independently transcribed non-coding RNA 1588) gave: TNF reporter robust z-score -1.03; inactive.
LINC01588 (long independently transcribed non-coding RNA 1588) gave TNF reporter robust z-score -1.08; inactive.
Silencing of LINC01588 (long independently transcribed non-coding RNA 1588) resulted in: TNF reporter robust z-score -1.06; inactive.
Against ZNF641 (zinc finger protein 641) the deposit lists TNF reporter robust z-score -0.23; inactive.
ZNF641 (zinc finger protein 641) gave TNF reporter robust z-score -0.55; inactive.
For ZNF641 (zinc finger protein 641) the deposit lists TNF reporter robust z-score -0.77; inactive.
For ZNF641 (zinc finger protein 641), the entry reads TNF reporter robust z-score 0.63; inactive.
With knock-down of CHRNA2 (cholinergic receptor nicotinic alpha 2 subunit), the record shows TNF reporter robust z-score -0.79; inactive.
For CHRNA2 (cholinergic receptor nicotinic alpha 2 subunit), the entry reads TNF reporter robust z-score 0.44; inactive.
CHRNA2 (cholinergic receptor nicotinic alpha 2 subunit) scored TNF reporter robust z-score -0.3; inactive.
CHRNA2 (cholinergic receptor nicotinic alpha 2 subunit) scored TNF reporter robust z-score 1.54; inactive.
Silencing of SLFNL1 (schlafen like 1) gave: TNF reporter robust z-score -0.87; inactive.
Silencing of SLFNL1 (schlafen like 1) gave: TNF reporter robust z-score -0.02; inactive.
Against SLFNL1 (schlafen like 1) the deposit lists TNF reporter robust z-score 0.49; inactive.
Knock-down of SLFNL1 (schlafen like 1) came out at: TNF reporter robust z-score -0.95; inactive.

6 entries from above in another layout.
{"gene knocked down":"FBXL4 (F-box and leucine rich repeat protein 4)","TNF reporter robust z-score":1.47,"activity call":"inactive"}
{"gene knocked down":"FBXL4 (F-box and leucine rich repeat protein 4)","TNF reporter robust z-score":-0.45,"activity call":"inactive"}
{"gene knocked down":"FBXL4 (F-box and leucine rich repeat protein 4)","TNF reporter robust z-score":3.23,"activity call":"active"}
{"gene knocked down":"FBXL4 (F-box and leucine rich repeat protein 4)","TNF reporter robust z-score":2.04,"activity call":"inactive"}
{"gene knocked down":"LINC01588 (long independently transcribed non-coding RNA 1588)","activity call":"inactive"}
{"gene knocked down":"LINC01588 (long independently transcribed non-coding RNA 1588)","TNF reporter robust z-score":-1.35,"activity call":"inactive"}

The results go on.
With knock-down of OR51D1 (olfactory receptor family 51 subfamily D member 1), the screen gave TNF reporter robust z-score 1.71; inactive.
OR51D1 (olfactory receptor family 51 subfamily D member 1) showed TNF reporter robust z-score 3.42; active.
Depletion of OR51D1 (olfactory receptor family 51 subfamily D member 1) came out at: TNF reporter robust z-score 2.04; inactive.
OR51D1 (olfactory receptor family 51 subfamily D member 1) gave TNF reporter robust z-score 2.06; inactive.
Against ANKFY1 (ankyrin repeat and FYVE domain containing 1), the entry reads TNF reporter robust z-score 0.2; inactive.
Against ANKFY1 (ankyrin repeat and FYVE domain containing 1) the deposit lists TNF reporter robust z-score -0.49; inactive.
For ANKFY1 (ankyrin repeat and FYVE domain containing 1), the values are TNF reporter robust z-score -0.92; inactive.
ANKFY1 (ankyrin repeat and FYVE domain containing 1) gave TNF reporter robust z-score 0.09; inactive.
IRGQ (immunity related GTPase Q) showed TNF reporter robust z-score -0.63; inactive.
After knock-down of IRGQ (immunity related GTPase Q), the screen gave TNF reporter robust z-score -0.31; inactive.
Depletion of IRGQ (immunity related GTPase Q) came out at: TNF reporter robust z-score -0.64; inactive.
Silencing of IRGQ (immunity related GTPase Q) gave: TNF reporter robust z-score 0.52; inactive.
Knock-down of UBE2O (ubiquitin conjugating enzyme E2 O) came out at: TNF reporter robust z-score -0.61; inactive.
After knock-down of UBE2O (ubiquitin conjugating enzyme E2 O), the record shows TNF reporter robust z-score -0.06; inactive.
Knock-down of UBE2O (ubiquitin conjugating enzyme E2 O) came out at: TNF reporter robust z-score 0.17; inactive.
UBE2O (ubiquitin conjugating enzyme E2 O) showed TNF reporter robust z-score 2.81; active.
Against FAM47C (family with sequence similarity 47 member C), the entry reads TNF reporter robust z-score 4.17; active.
FAM47C (family with sequence similarity 47 member C) gave TNF reporter robust z-score 3.48; active.
Depletion of FAM47C (family with sequence similarity 47 member C) gave: TNF reporter robust z-score 3.03; active.
With knock-down of FAM47C (family with sequence similarity 47 member C) the results were TNF reporter robust z-score 1.02; inactive.
EVL (Enah/Vasp-like) gave TNF reporter robust z-score -0.42; inactive.
After knock-down of EVL (Enah/Vasp-like), the record shows TNF reporter robust z-score -0.75; inactive.
After knock-down of EVL (Enah/Vasp-like), the screen gave TNF reporter robust z-score -1.28; inactive.
With knock-down of EVL (Enah/Vasp-like), the screen gave TNF reporter robust z-score -0.18; inactive.
